Assay results as given in PMC10360347.
These are yes or no findings as the source states them, for the method shown. Binding seen in cells or lysates may run through a third protein. Some binding calls cover weakened binding; strength is not graded here.

Biological target: T1, sirtuin 1 (SIRT1) (mouse (endogenous in hippocampal tissue)) (UniProt Q923E4)
T1 sequence: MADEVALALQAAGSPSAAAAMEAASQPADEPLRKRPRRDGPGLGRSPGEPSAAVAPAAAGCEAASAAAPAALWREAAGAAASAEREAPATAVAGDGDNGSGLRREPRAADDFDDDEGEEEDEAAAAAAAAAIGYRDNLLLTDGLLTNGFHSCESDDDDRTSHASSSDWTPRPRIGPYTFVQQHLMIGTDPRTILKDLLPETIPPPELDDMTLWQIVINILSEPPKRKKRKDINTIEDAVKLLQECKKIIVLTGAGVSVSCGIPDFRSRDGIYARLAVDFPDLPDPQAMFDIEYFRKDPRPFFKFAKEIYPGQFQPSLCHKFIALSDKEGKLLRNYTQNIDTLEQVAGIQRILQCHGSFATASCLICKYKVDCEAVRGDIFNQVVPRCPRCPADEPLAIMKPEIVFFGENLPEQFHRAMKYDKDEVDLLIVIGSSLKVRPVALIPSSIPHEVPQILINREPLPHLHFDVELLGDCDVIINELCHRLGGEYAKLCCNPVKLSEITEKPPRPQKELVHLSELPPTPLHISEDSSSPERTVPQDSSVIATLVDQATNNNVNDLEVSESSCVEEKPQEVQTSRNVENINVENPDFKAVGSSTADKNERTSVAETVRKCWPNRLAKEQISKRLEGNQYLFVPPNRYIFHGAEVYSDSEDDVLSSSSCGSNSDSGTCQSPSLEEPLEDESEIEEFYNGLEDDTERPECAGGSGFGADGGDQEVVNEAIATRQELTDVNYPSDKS
Test: co-IP; lysate of hippocampal tissue of WT mice; Dynabeads Protein G IP kit; 3 ug of anti-Fgr (Santa Cruz) and anti-SIRT1 (Abcam); detection by Western blotting

- binding: binds
Substance: Fgr kinase (from UniProt P14234 1-517) (enzyme)
